Results are given in words; binding and its absence hold for the method and conditions named. Binding seen in cells or lysates may run through a third protein. Here binding means that the protein was enriched with, or labelled near, the bait; the list need not be complete.
B1: RPAP2 (mouse) (protein, UniProt Q8VC34 1-614)
chain: MADSAVPCSLGPSTRASSTHRDATGTKQTRALKRGDASKRQAELEAAIQRKVEFERKAVRIVEQLLEENITEEFLKECGMFITPAHYSDVVDERSIIKLCGYPLCQKKLGVIPKQKYRISTKTNKVYDITERKSFCSNFCYRASKFFETQIPKTPVWVREEERPPDFQLLKKGQSGSSGEVVQFFRDAVTAADVDGSGALEAQCDPASSSSWSERASDEEEQGFVSSLLPGNRPKAVDTRPQPHTKSSIMRKKAAQNVDSKEGEQTVSEVTEQLDNCRLDSQEKVATCKRPLKKESTQISSPGPLCDRFNTSAISEHKHGVSQVTLVGISKKSAEHFRSKFAKSNPGSGSASGLVHVRPEVAKANLLRVLSDTLTEWKTEETLKFLYGQNHDSVCLKPSSASEPDEELDEDDISCDPGSCGPALSQAQNTLDATLPFRGSDTAIKPLPSYESLKKETEMLNLRVREFYRGRCVLNEDTTKSQDSKESVLQRDPSFPLIDSSSQNQIRRRIVLEKLSKVLPGLLGPLQITMGDIYTELKNLIQTFRLSNRNIIHKPVEWTLIAVVLLLLLTPILGIQKHSPKNVVFTQFIATLLTELHLKFEDLEKLTMIFRTSC
B2: NUP50 (mouse) (protein, UniProt Q9JIH2 1-466)
chain: MAKRVAEKELTDRNWDEEDEVEEMGTFSVASEEVMKNRAVKKAKRRNVGFESDSGGAFKGFKGLVVPSGGGGFSGFGGSGGKPLEGLTNGNSTDNATPFSNVKTAAEPKAAFGSFAVNGPTTLVDKKISSPKCNNSNQPPSSGPASSTACPGNAYHKQLAGLNCSVRDWIVKHVNTNPLCDLTPIFKDYERYLATIEKQLENGGGSSSESQTDRATAGMEPPSLFGSTKLQQESPFSFHGNKAEDTSEKVEFTAEKKSDAAQGATSASFSFGKKIESSALGSLSSGSLTGFSFSAGSSSLFGKDAAQSKAASSLFSAKASESPAGGGSSECRDGEEEENDEPPKVVVTEVKEEDAFYSKKCKLFYKKDNEFKEKGVGTLHLKPTATQKTQLLVRADTNLGNILLNVLIAPNMPCTRTGKNNVLIVCVPNPPLDEKQPTLPATMLIRVKTSEDADELHKILLEKKDA
B3: ATXN2 (mouse) (protein, UniProt O70305 1-1285)
chain: MRSSTAAVQRPAAGDPEPRRPAGWAARRSLPRTARRGGRGGAVAYPSAGPPPRGPGAPPRGPRSPPCASDCFGSNGHGASRPGSRRLLGVCGPPRPFVVVLLALAPAATPARACPPGVRASPPRSGVSSSARPAPGCPRPACEPVYGPLTMSLKPQPQPPAPATGRKPGGGLLSSPGAAPASAAVTSASVVPAPAAPVASSSAAAGGGRPGLGRGRNSSKGLPQPTISFDGIYANVRMVHILTSVVGSKCEVQVKNGGIYEGVFKTYSPKCDLVLDAAHEKSTESSSGPKREEIMESVLFKCSDFVVVQFKDTDSSYARRDAFTDSALSAKVNGEHKEKDLEPWDAGELTASEELELENDVSNGWDPNDMFRYNEENYGVVSTYDSSLSSYTVPLERDNSEEFLKREARANQLAEEIESSAQYKARVALENDDRSEEEKYTAVQRNCSDREGHGPNTRDNKYIPPGQRNREVLSWGSGRQSSPRMGQPGPGSMPSRAASHTSDFNPNAGSDQRVVNGGVPWPSPCPSHSSRPPSRYQSGPNSLPPRAATHTRPPSRPPSRPSRPPSHPSAHGSPAPVSTMPKRMSSEGPPRMSPKAQRHPRNHRVSAGRGSMSSGLEFVSHNPPSEAAAPPVARTSPAGGTWSSVVSGVPRLSPKTHRPRSPRQSSIGNSPSGPVLASPQAGIIPAEAVSMPVPAASPTPASPASNRALTPSIEAKDSRLQDQRQNSPAGSKENVKASETSPSFSKADNKGMSPVVSEHRKQIDDLKKFKNDFRLQPSSTSESMDQLLSKNREGEKSRDLIKDKTEASAKDSFIDSSSSSSNCTSGSSKTNSPSISPSMLSNAEHKRGPEVTSQGVQTSSPACKQEKDDREEKKDTTEQVRKSTLNPNAKEFNPRSFSQPKPSTTPTSPRPQAQPSPSMVGHQQPAPVYTQPVCFAPNMMYPVPVSPGVQPLYPIPMTPMPVNQAKTYRAGKVPNMPQQRQDQHHQSTMMHPASAAGPPIVATPPAYSTQYVAYSPQQFPNQPLVQHVPHYQSQHPHVYSPVIQGNARMMAPPAHAQPGLVSSSAAQFGAHEQTHAMYACPKLPYNKETSPSFYFAISTGSLAQQYAHPNAALHPHTPHPQPSATPTGQQQSQHGGSHPAPSPVQHHQHQAAQALHLASPQQQSAIYHAGLAPTPPSMTPASNTQSPQSSFPAAQQTVFTIHPSHVQPAYTTPPHMAHVPQAHVQSGMVPSHPTAHAPMMLMTTQPPGPKAALAQSALQPIPVSTTAHFPYMTHPSVQAHHQQQL
B4: UBAP2L (mouse) (protein, UniProt Q80X50 1-1107)
chain: MMTSVGTNRARGNWEQPQNQNQTQHKQRPQATAEQIRLAQMISDHNDADFEEKVKQLIDITGKNQDECVIALHDCNGDVNRAINVLLEGNPDTHSWEMVGKKKGVSGQKDGGQTESNEEGKENRDRDRDYSRRRGGPPRRGRGASRGREFRGQENGLDGTKSGGPSGRGTDRGRRGRGRGRGSSGRRGGRFSAQGMGTFNPADYAEPANTDDNYGNSSGNTWNNTGHFEPDDGTRLDFIGVEGSNYPRKFETAPGAWRTATEEWGTEDWNEDLSETKIFTASNVSSVPLPAENVTITAGQRIDLAVLLGKTPSSMENDSSNLDPSQAPSLAQPLVFSNSKQNAISQPASGSTFSHHSMVSMLGKGFGDVGEAKGGSTTGSQFLEQFKTAQALAQLAAQHSQSGSTTTSSWDMGSTTQSPSLVQYDLKSANDSTVHSPFTKRQAFTPSSTMMEVFLQEKPPAVATSTAAPPPPSSPLPSKSTSAPQMSPGSSDNQSSSPQPAQQKLKQQKKKTSLTSKIPALAVEMPGSADISGLNLQFGALQFGSEPVLSDYESTPTTSASSSQAPSSLYTSTASESSSTVSSNQSQESGYQSGPIQSTTYTSQNNAQGPLYEQRSTQTRRYPSSISSSPQKDLTQAKNGFSSVQATQLQTTQSVEGATGSAVKSESPSTSSIPSLNETVPAASLLTTANQHSSSLSGLSHTEEIPNTTTTQHSSALSTQQNTLSSSTSSGRTSTSTLLHTSVESEANLHSSSSTFSTTSSTVSAPPPVVSVSSSLNSGSSLGLSLGSNSTVTASTRSSVATTSGKAPPNLPPGVPPLLPNPYIMAPGLLHAYPPQVYGYDDLQMLQTRFPLDYYSIPFPTPTTPLTGRDGSLASNPYSGDLTKFGRGDASSPAPATTLAQPQQNQTQTHHTTQQTFLNPALPPGYSYTSLPYYTGVPGLPSTFQYGPAVFPVAPTSSKQHGVNVSVNASATPFQQPSGYGSHGYNTGVSVTSSNTGVPDISGSVYSKTQQSFEKQGFHSGTPAASFNLPSALGSGGPINPATAAAYPPAPFMHILTPHQQPHSQILHHHLQQDGQTGSGQRSQTSSIPQKPQTNKSAYNSYSWGAN
B5: GPHN (mouse) (protein, UniProt Q8BUV3 1-769)
chain: MATEGMILTNHDHQIRVGVLTVSDSCFRNLAEDRSGINLKDLVQDPSLLGGTISAYKIVPDEIEEIKETLIDWCDEKELNLILTTGGTGFAPRDVTPEATKEVIEREAPGMALAMLMGSLNVTPLGMLSRPVCGIRGKTLIINLPGSKKGSQECFQFILPALPHAIDLLRDAIVKVKEVHDELEDLPSPPPPLSPPPTTSPHKQTEDKGVQCEEEEEEKKDSGVASTEDSSSSHITAAALAAKIPDSIISRGVQVLPRDTASLSTTPSESPRAQATSRLSTASCPTPKQIRRPDESKGVASRVGSLKARLPSCSSTYSVSEVQSRCSSKENILRASHSAVDITKVARRHRMSPFPLTSMDKAFITVLEMTPVLGTEIINYRDGMGRVLAQDVYAKDNLPPFPASVKDGYAVRAADGPGDRFIIGESQAGEQPTQTVMPGQVMRVTTGAPIPCGADAVVQVEDTELIRESDDGTEELEVRILVQARPGQDIRPIGHDIKRGECVLAKGTHMGPSEIGLLATVGVTEVEVNKFPVVAVMSTGNELLNPEDDLLPGKIRDSNRSTLLATIQEHGYPTINLGIVGDNPDDLLNALNEGISRADVIITSGGVSMGEKDYLKQVLDIDLHAQIHFGRVFMKPGLPTTFATLDIDGVRKIIFALPGNPVSAVVTCNLFVVPALRKMQGILDPRPTIIKARLSCDVKLDPRPEYHRCILTWHHQEPLPWAQSTGNQMSSRLMSMRSANGLLMLPPKTEQYVELHKGEVVDVMVIGRL

Amino acid sequences for entries named in this document (tags omitted). A change or cut given only in a name is not applied to a line headed by its entry.
UniProt P11260: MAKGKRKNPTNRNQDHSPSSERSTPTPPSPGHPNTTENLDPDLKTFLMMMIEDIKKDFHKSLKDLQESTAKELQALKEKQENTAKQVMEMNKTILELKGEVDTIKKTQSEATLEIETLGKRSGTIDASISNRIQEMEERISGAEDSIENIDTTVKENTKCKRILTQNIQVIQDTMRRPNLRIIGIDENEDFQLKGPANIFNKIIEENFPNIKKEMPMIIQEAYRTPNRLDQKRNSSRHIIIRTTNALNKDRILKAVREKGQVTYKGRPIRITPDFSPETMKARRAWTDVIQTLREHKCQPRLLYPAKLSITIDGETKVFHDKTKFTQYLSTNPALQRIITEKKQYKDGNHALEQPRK

Target: LINE-1 ORF1p (mouse) (mouse (endogenous in MN9D)) (UniProt P11260)
Experiment: affinity purification with mass spectrometry; IP of endogenous ORF1p with antibody-coupled Dynabeads from sonicated lysate of differentiated MN9D neurons (day 10), against rabbit IgG, n = 5 IPs; 10 mM Tris HCl pH 8, 150 mM NaCl, overnight 4°C; on-bead digest, LC-MS/MS (DIA), label-free quantification; ratio ≥2, P ≤0.05

Row | Binder | binding
1 | B1 | binds
2 | B2 | binds
3 | B3 | binds
4 | B4 | binds
5 | B5 | binds

Reference: paper PMC13498733
